Structures are written as SMILES. The list shows a part of the results. Many values rest on one well or one pass, so single values are uncertain.

The test concerns Saccharomyces cerevisiae BY4743. The test is described as follows: growth (OD600) with compound + IPBC relative to untreated control; higher = less growth inhibition. The note with it: compound concentration: 133 uM; IPBC concentration: 0.5 ug/ml; 20 h. The method, then:
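NMCCC compounds (133 uM) combined with IPBC (0.5 ug/ml) against Saccharomyces cerevisiae BY4743 in YPD, 96-well plates. Growth was read as OD600 at 20 h and expressed as % of the untreated control. Single pass.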
`CC(=O)c1c(C)[nH]c(C(=O)N2CCN(Cc3ccc(C#N)cc3)CC2)c1C` + CCCCNC(=O)OCC#CI [3-iodo-2-propynyl butylcarbamate (IPBC)]: the growth came to 88.7%.

With `COc1ccc(C)cc1NC(=O)Nc1nnc(N(CC(C)C)CC(C)C)s1` + CCCCNC(=O)OCC#CI [3-iodo-2-propynyl butylcarbamate (IPBC)], the growth came to 108%.

For the compound `CC(C)CCN(Cc1ccco1)S(=O)(=O)c1ccc2c(c1)C(C)(C)C(=O)N2C` + CCCCNC(=O)OCC#CI [3-iodo-2-propynyl butylcarbamate (IPBC)], the growth worked out at 88.8%.

In the case of `ClC1=CC=CC(=C1)NC(=O)CS\C2=N\C(=O)CC(N2)C3=CC=CC=C3` (stereo not given) + CCCCNC(=O)OCC#CI [3-iodo-2-propynyl butylcarbamate (IPBC)], the growth stood at 103%.

For `CCN(CC)CCS\C1=N\C(=C(\CC)C(=O)N1C2=CC=CC=C2)O` + CCCCNC(=O)OCC#CI [3-iodo-2-propynyl butylcarbamate (IPBC)], the growth was found to be 103%.

For the compound `CN(C)c1cccc(C(=O)OCc2cn3cc(Cl)ccc3n2)c1` + CCCCNC(=O)OCC#CI [3-iodo-2-propynyl butylcarbamate (IPBC)], the growth turned out to be 86.6%.

As to `CCOc1ccccc1NC(=O)CN1C(=O)CCSc2ccccc21` + CCCCNC(=O)OCC#CI [3-iodo-2-propynyl butylcarbamate (IPBC)], the growth stood at 105%.

Take `CC1=C(C(=O)OCC(C)C)C(/C=C/c2ccccc2)N2C(=O)CCSC2=N1` (stereo not given) + CCCCNC(=O)OCC#CI [3-iodo-2-propynyl butylcarbamate (IPBC)]: the growth was determined as 94.6%.

For the compound `CCN1CCN(c2ccccc2NS(=O)(=O)c2cc(Br)cc(C(=O)O)c2F)CC1` + CCCCNC(=O)OCC#CI [3-iodo-2-propynyl butylcarbamate (IPBC)], the growth came out at 103%.

For `CC(NC(=O)CN1\N=N/C2=CC=CC=C2C1=O)C3=CC=CC(=C3)Cl` (stereo not given) + CCCCNC(=O)OCC#CI [3-iodo-2-propynyl butylcarbamate (IPBC)], the growth stood at 107%.

On to `CCc1nnc(NC(=O)CSc2nccn2Cc2ccco2)s1` + CCCCNC(=O)OCC#CI [3-iodo-2-propynyl butylcarbamate (IPBC)], for which the growth is 89.8%.

With `COCc1cc(O)n2nc(NC(C)=O)nc2n1` + CCCCNC(=O)OCC#CI [3-iodo-2-propynyl butylcarbamate (IPBC)], the growth was 81.7%.

Regarding `CCO/C(O)=C1/C(CC)=Nc2ccccc2N=C1NS(=O)(=O)c1cccc(C(C)=O)c1` + CCCCNC(=O)OCC#CI [3-iodo-2-propynyl butylcarbamate (IPBC)], the growth worked out at 103%.

For `O=C(c1ccco1)N1CCN(C(=O)c2cccnc2SC(F)F)CC1` + CCCCNC(=O)OCC#CI [3-iodo-2-propynyl butylcarbamate (IPBC)], the growth was 106%.

Consider `CCC(C)N1CCN(C(=O)CN(C)S(=O)(=O)c2ccc3c(c2)c(=O)n(C)c(=O)n3C)CC1` (stereo not given) + CCCCNC(=O)OCC#CI [3-iodo-2-propynyl butylcarbamate (IPBC)], for which the growth stood at 106%.

Regarding `COc1ccc(Cl)cc1-c1n[nH]c(SCC(=O)N(CCC#N)c2ccccc2)n1` + CCCCNC(=O)OCC#CI [3-iodo-2-propynyl butylcarbamate (IPBC)], the growth was found to be 112%.

As to `Cc1ccc2cc(CN(CC(C)C)C(=O)c3ccco3)c(O)nc2c1` + CCCCNC(=O)OCC#CI [3-iodo-2-propynyl butylcarbamate (IPBC)], the growth came to 110%.

On to `CC1CCCCC1NC(=O)c1cc(S(=O)(=O)N2CCCC2)cn1C` (stereo not given) + CCCCNC(=O)OCC#CI [3-iodo-2-propynyl butylcarbamate (IPBC)], for which the growth stood at 91.6%.

For the compound `CCC1CCCCN1C(=O)C(C)OC(=O)c1ccc(-n2cccn2)cc1` (stereo not given) + CCCCNC(=O)OCC#CI [3-iodo-2-propynyl butylcarbamate (IPBC)], the growth was determined as 88.6%.

As for `COc1ccc(CNC(=O)c2ccc(NS(=O)(=O)c3ccc(C(C)O)cc3)cc2)cc1OC` (stereo not given) + CCCCNC(=O)OCC#CI [3-iodo-2-propynyl butylcarbamate (IPBC)], the growth was 107%.

With `CCC1CN(CN2C(=O)C(=O)c3c(Br)cccc32)CCO1` (stereo not given) + CCCCNC(=O)OCC#CI [3-iodo-2-propynyl butylcarbamate (IPBC)], the growth amounted to 109%.

For the compound `CCOC(=O)C(Sc1nnc(C(F)(F)F)n1C)c1ccccc1` (stereo not given) + CCCCNC(=O)OCC#CI [3-iodo-2-propynyl butylcarbamate (IPBC)], the growth was 110%.

For `CC(C)(C)C(O)CN\1C2=CC=CC=C2N3CC/N=C13` (stereo not given) + CCCCNC(=O)OCC#CI [3-iodo-2-propynyl butylcarbamate (IPBC)], the growth amounted to 98.4%.

Turning to `Cc1cc(C)nc(SCc2nc(-c3ccccc3)no2)n1` + CCCCNC(=O)OCC#CI [3-iodo-2-propynyl butylcarbamate (IPBC)], the growth was determined as 95.5%.

On to `Cc1cc(SCC(=O)OC(C)C(=O)c2ccc(NS(C)(=O)=O)cc2)nc2ccccc12` (stereo not given) + CCCCNC(=O)OCC#CI [3-iodo-2-propynyl butylcarbamate (IPBC)], for which the growth came out at 109%.

Consider `Cc1cc(COC(=O)c2ccccc2NC(=O)c2ccsc2)no1` + CCCCNC(=O)OCC#CI [3-iodo-2-propynyl butylcarbamate (IPBC)], for which the growth was found to be 98.5%.

Take `Cc1c(CCO)c(O)oc2nnc(-c3ccccc3)c1-2` + CCCCNC(=O)OCC#CI [3-iodo-2-propynyl butylcarbamate (IPBC)]: the growth worked out at 85.5%.

In the case of `Cc1cc(C(=O)COc2ncnc3c(Cl)cc(Cl)cc23)c(C)n1C` + CCCCNC(=O)OCC#CI [3-iodo-2-propynyl butylcarbamate (IPBC)], the growth was determined as 101%.

As for `COc1cccc(CNCc2cccn2-c2sc(C)c(C)c2C(=O)O)c1` + CCCCNC(=O)OCC#CI [3-iodo-2-propynyl butylcarbamate (IPBC)], the growth is 106%.

For `Cc1sc(NC(=O)CSc2ncnc3ccccc23)c(C#N)c1C` + CCCCNC(=O)OCC#CI [3-iodo-2-propynyl butylcarbamate (IPBC)], the growth worked out at 93.5%.

`CCCNC(=O)Cc1c(C)nc2cc(-c3ccccc3)nn2c1C` + CCCCNC(=O)OCC#CI [3-iodo-2-propynyl butylcarbamate (IPBC)]: the growth came to 86.8%.

Regarding `CCCC(=O)Nc1cc2nn(-c3ccccc3)nc2cc1Cl` + CCCCNC(=O)OCC#CI [3-iodo-2-propynyl butylcarbamate (IPBC)], the growth is 84.4%.

Take `Fc1ccc(-c2ccc(NCCc3cccs3)nn2)cc1` + CCCCNC(=O)OCC#CI [3-iodo-2-propynyl butylcarbamate (IPBC)]: the growth was found to be 89.8%.

Take `CCOC(=O)CNC(=O)C1CCCc2c1[nH]c1ccc(Cl)cc21` (stereo not given) + CCCCNC(=O)OCC#CI [3-iodo-2-propynyl butylcarbamate (IPBC)]: the growth was 97.4%.

Consider `CCC(=O)N1CCc2cc(CNS(=O)(=O)N(C)C)ccc21` + CCCCNC(=O)OCC#CI [3-iodo-2-propynyl butylcarbamate (IPBC)], for which the growth turned out to be 84.6%.

In the case of `COc1ccc(OC)c(C2CCCN2C(=O)COc2ccc(NC(C)=O)cc2)c1` (stereo not given) + CCCCNC(=O)OCC#CI [3-iodo-2-propynyl butylcarbamate (IPBC)], the growth was 99.9%.

Turning to `CCN1CCC(N(Cc2cccs2)C(=O)Nc2cccc(C)c2C)CC1` + CCCCNC(=O)OCC#CI [3-iodo-2-propynyl butylcarbamate (IPBC)], the growth is 98.9%.

For `Cc1ccc(-c2cc(NC(=O)CNC(C)c3ccc(F)cc3F)on2)cc1` (stereo not given) + CCCCNC(=O)OCC#CI [3-iodo-2-propynyl butylcarbamate (IPBC)], the growth came out at 83.1%.

Consider `Cc1ccc2cc(C(=O)NCCN3CCS(=O)(=O)CC3)c(C)nc2c1` + CCCCNC(=O)OCC#CI [3-iodo-2-propynyl butylcarbamate (IPBC)], for which the growth was 106%.

For the compound `COC1=CC=CC(=C1)\C2=C\CN(C(=O)N2)C3=CC=CC=C3O` + CCCCNC(=O)OCC#CI [3-iodo-2-propynyl butylcarbamate (IPBC)], the growth amounted to 102%.

(Values after the supplement of paper PMC8007513.)
